Measured values published in article PMC7672075.
Changes are numbered by the printed parent chain. Numbers in names are those of the source. No constants are given. Whether binding was seen depends on the method and setting. For some assays here: A result given as binding can be weak or reduced; the word gives no strength. For some assays here: Binding seen in cells or lysates may run through a third protein. For some assays here: Tags and fused reporters may be left off the sequences shown.

How the values were obtained:
Myc-hTRF2 (human) = experiment: co-IP; 293T cells co-transfected with FLAG-MCPH1 constructs and Myc-hTRF2 or Myc-hTRF2^F120A; lysed in BC300 buffer (300 mM KCl, 0.5% NP-40); Myc antibody-conjugated agarose beads; MCPH1^ΔBRCT cells and a WT control treated with 12.5 μM MG132
Myc-hTRF2^F120A (human) = experiment: as above
[1] = target: TRF2^TRFH (TRF Homology domain of human TRF2, residues 42–245) (human); experiment: condition: 1.0 mM peptide in the syringe, 0.1 mM TRF2^TRFH in the cell; ITC; MCPH1^TBM peptides at 1.0 mM in the syringe titrated into TRF2^TRFH at 0.1 mM in the sample cell; 20 °C; 25 mM Tris-HCl pH 8.0, 150 mM NaCl; both purified
[2] = target: TRF2^TRFH (TRF Homology domain of human TRF2, residues 42–245) (human); experiment: crystal structure; TRF2^TRFH and MCPH1^TBM mixed at a molar ratio of 1:2; 100 mM CHES-NaOH pH 9.5, 30% PEG400, 293K; 2.15 Å, molecular replacement; both purified

B1: FLAG-MCPH1^S333A (protein, UniProt Q8NEM0 1-835)
chain: MAAPILKDVVAYVEVWSSNGTENYSKTFTTQLVDMGAKVSKTFNKQVTHVIFKDGYQSTWDKAQKRGVKLVSVLWVEKCRTAGAHIDESLFPAANMNEHLSSLIKKKRKCMQPKDFNFKTPENDKRFQKKFEKMAKELQRQKTNLDDDVPILLFESNGSLIYTPTIEINSRHHSAMEKRLQEMKEKRENLSPTSSQMIQQSHDNPSNSLCEAPLNISRDTLCSDEYFAGGLHSSFDDLCGNSGCGNQERKLEGSINDIKSDVCISSLVLKANNIHSSPSFTHLDKSSPQKFLSNLSKEEINLQRNIAGKVVTPDQKQAAGMSQETFEEKYRLAPTLSSTKGHLLIHSRPRSSSVKRKRVSHGSHSPPKEKCKRKRSTRRSIMPRLQLCRSEDRLQHVAGPALEALSCGESSYDDYFSPDNLKERYSENLPPESQLPSSPAQLSCRSLSKKERTSIFEMSDFSCVGKKTRTVDITNFTAKTISSPRKTGNGEGRATSSCVTSAPEEALRCCRQAGKEDACPEGNGFSYTIEDPALPKGHDDDLTPLEGSLEEMKEAVGLKSTQNKGTTSKISNSSEGEAQSEHEPCFIVDCNMETSTEEKENLPGGYSGSVKNRPTRHDVLDDSCDGFKDLIKPHEELKKSGRGKKPTRTLVMTSMPSEKQNVVIQVVDKLKGFSIAPDVCETTTHVLSGKPLRTLNVLLGIARGCWVLSYDWVLWSLELGHWISEEPFELSHHFPAAPLCRSECHLSAGPYRGTLFADQPAMFVSPASSPPVAKLCELVHLCGGRVSQVPRQASIVIGPYSGKKKATVKYLSEKWVLDSITQHKVCAPENYLLSQ
binding (Myc-hTRF2 (human)): binds

B2: FLAG-tagged WT MCPH1 (human) (protein, UniProt Q8NEM0 1-835)
chain: B1 chain with A333S
binding (Myc-hTRF2 (human)): binds | binding (Myc-hTRF2^F120A (human)): no binding

B3: FLAG-MCPH1^(Y330A, L332A) (protein, UniProt Q8NEM0 1-835)
chain: B1 chain with Y330A, L332A, A333S
binding (Myc-hTRF2 (human)): no binding

B4: MCPH1^TBM peptide Y330A, synthetic (peptide, UniProt Q8NEM0 322-342)
peptide: SQETFEEKARLSPTLSSTKGH
binding [1]: no binding

B5: MCPH1^TBM peptide L332A, synthetic (peptide, UniProt Q8NEM0 322-342)
peptide: SQETFEEKYRASPTLSSTKGH
binding [1]: no binding

B6: MCPH1^TBM peptide (residues 322–342), recombinant (peptide, UniProt Q8NEM0 322-342)
peptide: SQETFEEKYRLSPTLSSTKGH
binding [2]: binds

B7: MCPH1^TBM peptide Y330E, synthetic (peptide, UniProt Q8NEM0 322-342)
peptide: SQETFEEKERLSPTLSSTKGH
binding [1]: no binding
